Measured values reported in publication PMC11758950.
No constants are given. Whether binding was seen depends on the method and setting. In cells and extracts the contact can be indirect. Binding calls can cover weak binding; strength is not graded here.

These substances were tested against T1, ELFN1-Venus (mouse) (UniProt Q8C8T7) (assay: co-IP; co-transfected HEK 293 T/17 cells (2.5 ug of each construct), 1% Triton-X lysis buffer; Protein G Sepharose beads with mouse GFP antibody, 1 h at 4 C, washed 3 times; blot with myc antibody).
T1 sequence: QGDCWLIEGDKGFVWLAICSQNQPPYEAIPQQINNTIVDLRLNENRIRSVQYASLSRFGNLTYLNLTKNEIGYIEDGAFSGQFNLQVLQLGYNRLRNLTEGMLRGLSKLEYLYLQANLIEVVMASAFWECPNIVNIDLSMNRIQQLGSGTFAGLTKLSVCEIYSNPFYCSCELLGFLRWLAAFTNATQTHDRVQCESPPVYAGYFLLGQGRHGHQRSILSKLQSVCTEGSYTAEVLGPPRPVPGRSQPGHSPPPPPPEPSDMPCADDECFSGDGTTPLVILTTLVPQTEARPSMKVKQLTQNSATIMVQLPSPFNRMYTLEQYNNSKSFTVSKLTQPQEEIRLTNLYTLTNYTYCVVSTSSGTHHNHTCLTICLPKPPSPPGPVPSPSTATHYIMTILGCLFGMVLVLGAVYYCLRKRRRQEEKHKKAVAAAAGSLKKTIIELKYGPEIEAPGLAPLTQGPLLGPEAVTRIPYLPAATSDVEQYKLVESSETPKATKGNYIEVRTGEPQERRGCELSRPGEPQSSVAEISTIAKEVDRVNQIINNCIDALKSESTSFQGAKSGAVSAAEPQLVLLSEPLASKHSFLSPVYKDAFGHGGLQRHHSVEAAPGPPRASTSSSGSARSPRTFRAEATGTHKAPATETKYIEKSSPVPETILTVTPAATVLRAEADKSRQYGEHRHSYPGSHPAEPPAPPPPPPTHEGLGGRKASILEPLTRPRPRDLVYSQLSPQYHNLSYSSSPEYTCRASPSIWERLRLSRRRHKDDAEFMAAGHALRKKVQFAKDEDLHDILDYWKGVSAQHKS

Substance	binding
ELFN1ΔFN3-myc (from UniProt Q8C8T7)	binds
ELFN1ΔLRR-myc (from UniProt Q8C8T7)	no binding
ELFN1ΔSP-myc (from UniProt Q8C8T7)	binds
